Reference: paper PMC9788671
No constants are given. Whether binding was seen depends on the method and setting. In cells and extracts the contact can be indirect. A yes stands for co-enrichment or nearness to the bait. Other partners may have been found. Values belong to the binder of their own block, whether it stands above or below them.

Protein sequences, listed by entry. Tags and fused reporters are not part of them.
UniProt Q9NZV8: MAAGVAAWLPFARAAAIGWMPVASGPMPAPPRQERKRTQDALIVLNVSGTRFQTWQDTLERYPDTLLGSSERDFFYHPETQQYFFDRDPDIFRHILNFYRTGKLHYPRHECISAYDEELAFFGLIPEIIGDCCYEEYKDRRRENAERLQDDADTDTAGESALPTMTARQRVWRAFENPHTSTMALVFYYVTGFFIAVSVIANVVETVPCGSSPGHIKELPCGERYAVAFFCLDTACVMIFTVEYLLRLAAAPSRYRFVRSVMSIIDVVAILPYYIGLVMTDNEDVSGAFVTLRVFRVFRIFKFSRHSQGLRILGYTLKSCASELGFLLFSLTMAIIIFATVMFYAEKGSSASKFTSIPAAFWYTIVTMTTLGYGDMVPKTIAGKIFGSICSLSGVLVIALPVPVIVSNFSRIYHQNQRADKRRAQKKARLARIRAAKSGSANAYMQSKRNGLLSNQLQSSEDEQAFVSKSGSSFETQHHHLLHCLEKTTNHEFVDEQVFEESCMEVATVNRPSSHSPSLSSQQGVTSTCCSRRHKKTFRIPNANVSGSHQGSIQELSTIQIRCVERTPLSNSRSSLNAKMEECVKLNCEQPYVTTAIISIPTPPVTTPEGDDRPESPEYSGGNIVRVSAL

How the values were obtained:
TAP-Kv4.2 (human) [1] = target: TAP-Kv4.2 (human) (UniProt Q9NZV8); assay: affinity purification with mass spectrometry; TAP-Kv4.2 expressed by lentivirus in rat hippocampal neurons, harvested at DIV14; weak lysis buffer of the kit (0.1% NP-40); streptavidin resin, then calmodulin resin; gel cut into high and low molecular weight fragments; no MS of the control sample
TAP-Kv4.2 (human) [2] = target: TAP-Kv4.2 (human) (UniProt Q9NZV8); assay: affinity purification with mass spectrometry; TAP-Kv4.2 expressed by lentivirus in rat hippocampal neurons, harvested at DIV14; strong lysis buffer (1% Triton X-100, 0.5% deoxycholate in PBS, pH 7.4); streptavidin resin, then calmodulin resin; gel cut into high and low molecular weight fragments; no MS of the control sample

- binding (TAP-Kv4.2 (human) [1]): binds
- binding (TAP-Kv4.2 (human) [2]): binds
B1: Hspa4 (protein, UniProt O88600 1-840)
chain: MSVVGIDLGFQSCYVAVARAGGIETIANEYSDRCTPACVSFGPKNRSVGAAAKSQVISNAKNTVQGFKRFHGRAFSDPFVEAEKSNLAYDIVQLPTGLTGIKVTYMEEERNFTTEQVTAMLLSKLKETAESVLKKPVVDCVVSVPSFYTDAERRSVMDATQIAGLNCLRLMNETTAVALAYGIYKQDLPALEEKPRNVVFVDMGHSAYQVSVCAFNRGKLKVLATAFDTTLGGRKFDEVLVNHFCEEFGKKYKLDIKSKVRALLRLSQECEKLKKLMSANASDLPLSIECFMNDIDVSGTMNRGKFLEMCDDLLARVEPPLRSILDQSKLKKEDIYAVEIVGGATRIPAVKEKISKFFGKELSTTLNADEAVTRGCALQCAILSPAFKVREFSITDVVPYPISLRWNSPAEEGSSDCEVFPKNHAAPFSKVLTFYRKEPFTLEAYYSSPQDLPYPDPAIAQFSVQKVTPQSDGSSSKVKVKVRVNVHGIFSVSSAALVEVHKSEESEEPMETDQNAKEEEKMQVDQEEPHTEEQQPQTPAENKAESEEMETSQAGSKDKKMDQPPQAKKAKVKTSTVDLPIESQLLWQLDREMLGLYTENEGKMIMQDKLEKERNDAKNAVEEYVYEMRDKLSGEYEKFVSEDDRNNFTLKLEDTENWLYEDGEDQPKQVYVDKLAELRTLGQPIKTRFQESEERPKLFEELGKQIQQYMKVISSFKNKEDQYEHLDAADMTKVEKSTNEAMEWMNSKLNLQNKQSLTADPVVKTKEIEAKIKELTNICSPIISKPKPKVEPPKEEPKHAEQNGPVDGQGDNPGTQAAEHGADTAVPSDGDKKLPEMDID

- binding (TAP-Kv4.2 (human) [1]): binds
- binding (TAP-Kv4.2 (human) [2]): binds
B2: Nckap1 (protein, UniProt P55161 1-1128)
chain: MSRSVLQPSQQKLAEKLTILNDRGVGMLTRLYNIKKACGDPKAKPSYLIDKNLESAVKFIVRKFPAVETRNNNQQLAQLQKEKSEILKNLALYYFTFVDVMEFKDHVCDLLNTIDVCQVFFDITVNFDLTKNYLDLTVTYTTLMILLSRIEERKAIIGLYNYAHEMTHGASDREYPRLGQMIVDYEHPLKKMMEEFVPHSKSLSDALISLQMVYPRRNLSADQWRNAQLLSLISAPSTMLNPAQSDTMPCEYLSLDAMEKWIIFGFILCHGMLNTEATALNLWKLALQSSSCLSLFRDEVFHIHKAAEDLFVNIRGYNKRINDIRECKEAAVSHAGSMHRERRKFLRSALKELATVLSDQPGLLGPKALFVFMALSFARDEIIWLLRHADNMPKKSADDFIDKHIAELIFYMEELRAHVRKYGPVMQRYYVQYLSGFDAVVLNELVQNLSVCPEDESIIMSSFVNTMTSLSVKQVEDGEVFDFRGMRLDWFRLQAYTSVSKASLSLADHRELGKMMNTIIFHTKMVDSLVEMLVETSDLSIFCFYSRAFEKMFQQCLELPSQSRYSIAFPLLCTHFMSCTHELCPEERHHIGDRSLSLCNMFLDEMAKQARNLITDICTEQCTLSDQLLPKHCAKTISQAVNKKSKKQTGKKGEPEREKPGVESMRKNRLVVTNLDKLHTALSELCFSINYVPNMAVWEHTFTPREYLTSHLEIRFTKSIVGMTMYNQATQEIAKPSELLTSVREYMTVLQSIENYVQIDITRVFNNVLLQQTQHLDSHGEPTITSLYTNWYLETLLRQVSNGHIAYFPAMKAFVNLPTENELTFNAEEYSDISEMRSLSELLGPYGMKFLSESLMWHISSQVAELKKLVVENVDVLTQMRTSFDKPDQMAALFKRLSSVDSVLKRMTIIGVILSFRSLAQEALRDVLSYHIPFLVSSIEDFKDHIPRETDMKVAMNVYELSSAAGLPCEIDPALVVALSSQKSENISPEEEYKIACLLMVFVAVSLPTLASNVMSQYSPAIEGHCNNIHCLAKAINQIAAALFTIHKGSIEDRLKEFLALASSSLLKIGQETDKTTTRNRESVYLLLDMIVQESPFLTMDLLESCFPYVLLRNAYHAVYKQSVTSSA
